Data from paper PMC4841779.
Results are given in words; binding and its absence hold for the method and conditions named. A result given as binding can be weak or reduced; the word gives no strength.

Protein sequences, listed by entry. Tags and fused reporters are not part of them. Lines headed by an entry give the natural chain unless they say otherwise; changes in a name come on top.
UniProt P20936: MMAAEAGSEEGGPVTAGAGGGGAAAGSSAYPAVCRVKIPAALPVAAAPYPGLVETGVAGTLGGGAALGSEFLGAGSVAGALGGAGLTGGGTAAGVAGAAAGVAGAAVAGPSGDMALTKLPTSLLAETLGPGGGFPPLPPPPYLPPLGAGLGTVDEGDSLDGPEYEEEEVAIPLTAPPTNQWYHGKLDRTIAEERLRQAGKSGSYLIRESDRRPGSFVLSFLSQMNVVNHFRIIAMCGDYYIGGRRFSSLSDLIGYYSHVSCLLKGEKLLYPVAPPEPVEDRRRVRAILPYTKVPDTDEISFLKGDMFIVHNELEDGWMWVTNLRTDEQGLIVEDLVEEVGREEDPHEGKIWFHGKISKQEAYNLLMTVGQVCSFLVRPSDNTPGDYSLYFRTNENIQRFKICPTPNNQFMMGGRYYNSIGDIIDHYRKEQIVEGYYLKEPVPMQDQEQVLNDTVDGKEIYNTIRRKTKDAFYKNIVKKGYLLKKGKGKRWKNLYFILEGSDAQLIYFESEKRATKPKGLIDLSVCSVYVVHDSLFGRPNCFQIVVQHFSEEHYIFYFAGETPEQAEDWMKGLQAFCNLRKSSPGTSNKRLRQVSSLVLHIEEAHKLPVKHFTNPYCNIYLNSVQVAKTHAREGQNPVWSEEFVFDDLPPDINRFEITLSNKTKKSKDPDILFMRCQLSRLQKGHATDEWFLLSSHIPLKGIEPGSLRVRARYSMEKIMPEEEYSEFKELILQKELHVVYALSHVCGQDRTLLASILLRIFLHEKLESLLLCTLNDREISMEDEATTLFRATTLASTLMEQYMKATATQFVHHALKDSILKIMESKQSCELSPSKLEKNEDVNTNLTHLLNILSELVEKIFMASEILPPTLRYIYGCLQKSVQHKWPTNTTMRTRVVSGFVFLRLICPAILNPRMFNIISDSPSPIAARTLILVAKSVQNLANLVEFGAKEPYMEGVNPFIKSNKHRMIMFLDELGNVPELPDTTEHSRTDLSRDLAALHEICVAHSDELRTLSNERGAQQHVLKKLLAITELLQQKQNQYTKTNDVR
UniProt P27986: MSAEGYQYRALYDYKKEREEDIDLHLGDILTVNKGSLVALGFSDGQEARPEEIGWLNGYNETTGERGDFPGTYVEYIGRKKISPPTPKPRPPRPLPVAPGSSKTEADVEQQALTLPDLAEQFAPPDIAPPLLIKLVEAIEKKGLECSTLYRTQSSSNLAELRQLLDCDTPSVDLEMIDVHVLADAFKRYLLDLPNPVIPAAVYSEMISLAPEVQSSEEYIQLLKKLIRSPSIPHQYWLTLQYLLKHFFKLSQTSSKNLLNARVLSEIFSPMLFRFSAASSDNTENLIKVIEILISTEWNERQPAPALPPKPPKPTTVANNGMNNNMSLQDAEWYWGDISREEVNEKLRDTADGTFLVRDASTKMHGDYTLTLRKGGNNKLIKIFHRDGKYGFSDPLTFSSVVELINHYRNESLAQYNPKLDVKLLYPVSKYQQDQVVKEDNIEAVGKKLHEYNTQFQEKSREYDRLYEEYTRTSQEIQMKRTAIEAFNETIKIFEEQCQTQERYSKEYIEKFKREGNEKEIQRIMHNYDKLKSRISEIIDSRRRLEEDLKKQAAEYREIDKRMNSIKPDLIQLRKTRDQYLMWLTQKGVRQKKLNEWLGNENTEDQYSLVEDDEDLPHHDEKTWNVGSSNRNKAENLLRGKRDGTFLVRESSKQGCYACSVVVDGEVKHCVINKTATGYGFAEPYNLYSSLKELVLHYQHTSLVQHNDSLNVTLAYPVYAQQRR

Legend:
[1] = biological target: T1, p130CAS, tyrosine-phosphorylated (doublet at 150 and 115 kDa of A431 lysate) (human (endogenous in A431)) (UniProt P56945); assay: far-Western, overlay or dot blot; lysates of starved A431 cells stimulated with 25 ng/ml EGF (60-min time course; also 1 and 10 ng/ml EGF, or pervanadate), 20 μg per lane on LDS-PAGE, transferred to nitrocellulose; blotted 2 hr with 1–5 ng/ml recombinant GST-SH2/PTB labeled with GSH-HRP and anti-GST-HRP in 5% milk-TBST; bands identified by immunodepletion; only the binder purified
T1 sequence (chain, phosphotyrosine (sites that bind each probe not determined)): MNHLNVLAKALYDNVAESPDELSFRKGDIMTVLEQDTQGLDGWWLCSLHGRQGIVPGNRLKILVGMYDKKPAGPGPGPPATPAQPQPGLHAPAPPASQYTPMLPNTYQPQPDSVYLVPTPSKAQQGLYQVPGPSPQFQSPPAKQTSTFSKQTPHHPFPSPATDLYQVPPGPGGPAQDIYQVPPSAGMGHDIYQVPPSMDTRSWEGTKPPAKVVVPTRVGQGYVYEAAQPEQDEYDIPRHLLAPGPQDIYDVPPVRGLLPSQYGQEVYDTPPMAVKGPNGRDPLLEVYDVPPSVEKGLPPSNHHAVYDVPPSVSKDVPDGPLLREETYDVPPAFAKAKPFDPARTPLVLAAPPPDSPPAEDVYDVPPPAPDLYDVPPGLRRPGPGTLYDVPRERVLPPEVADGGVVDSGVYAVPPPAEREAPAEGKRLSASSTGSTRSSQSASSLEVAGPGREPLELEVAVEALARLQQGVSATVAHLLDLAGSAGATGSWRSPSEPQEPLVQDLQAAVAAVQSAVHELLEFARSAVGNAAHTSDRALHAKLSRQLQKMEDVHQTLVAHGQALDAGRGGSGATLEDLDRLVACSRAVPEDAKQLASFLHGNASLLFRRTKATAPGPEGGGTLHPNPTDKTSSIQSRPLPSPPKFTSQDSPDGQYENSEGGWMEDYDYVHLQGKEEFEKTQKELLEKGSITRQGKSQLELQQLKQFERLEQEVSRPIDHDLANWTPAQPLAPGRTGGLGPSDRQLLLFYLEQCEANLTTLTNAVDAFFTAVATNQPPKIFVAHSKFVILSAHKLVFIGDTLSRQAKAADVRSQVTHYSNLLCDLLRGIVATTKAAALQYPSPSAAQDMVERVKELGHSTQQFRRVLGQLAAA

[2] = biological target: T2, GAB1, tyrosine-phosphorylated (130 kDa band of A431 lysate) (human (endogenous in A431)) (UniProt Q13480); assay: as above
T2 sequence (chain, phosphotyrosine (sites that bind each probe not determined)): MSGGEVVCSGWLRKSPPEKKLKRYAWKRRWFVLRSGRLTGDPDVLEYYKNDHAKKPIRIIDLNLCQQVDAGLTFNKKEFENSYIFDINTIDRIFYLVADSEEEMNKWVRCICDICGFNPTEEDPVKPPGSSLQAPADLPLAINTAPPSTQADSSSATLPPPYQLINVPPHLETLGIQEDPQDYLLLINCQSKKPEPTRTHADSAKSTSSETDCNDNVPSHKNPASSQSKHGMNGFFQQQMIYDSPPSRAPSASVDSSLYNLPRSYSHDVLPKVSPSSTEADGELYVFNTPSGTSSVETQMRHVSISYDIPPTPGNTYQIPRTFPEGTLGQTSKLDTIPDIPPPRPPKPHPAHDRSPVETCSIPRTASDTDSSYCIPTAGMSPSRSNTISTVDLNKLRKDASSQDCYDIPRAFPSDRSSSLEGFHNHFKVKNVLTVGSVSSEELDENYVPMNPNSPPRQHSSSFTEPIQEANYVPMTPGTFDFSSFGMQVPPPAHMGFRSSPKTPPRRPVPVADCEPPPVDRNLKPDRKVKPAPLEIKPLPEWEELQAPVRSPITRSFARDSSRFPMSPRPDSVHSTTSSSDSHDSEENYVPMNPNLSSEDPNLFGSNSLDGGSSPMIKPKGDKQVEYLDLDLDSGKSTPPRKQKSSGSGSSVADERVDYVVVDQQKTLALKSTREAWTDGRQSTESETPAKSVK

Substance	binding [1]	binding [2]
GST-RASGAP natural tandem SH2 domain probe (from UniProt P20936) (domain or fragment)	binds	
GST-p85α N-terminal SH2 domain probe (from UniProt P27986) (domain or fragment)		binds
GST-p85α natural tandem SH2 domain probe (from UniProt P27986) (domain or fragment)		binds
